Some of these results come from one statement about several compounds together.
Tested on: MDA-MB-231 breast cancer cells
Assay: scid mouse human breast tumor model (tumor growth, survival)
Assay type: in vivo, scid mice
Settings: after 100 days, IP qod×5

Row | SMILES | mean tumor volume (30 mg/kg of 4-methyl-3-nitro-benzoic acid alone) | mean tumor volume (10 mg/kg of Taxol alone)
1 | Cc1ccc(C(=O)O)cc1[N+](=O)[O-] [4-methyl-3-nitro-benzoic acid] | less than 1000 mm^3 | 
2 | CC(=O)O[C@H]1C(=O)[C@@]2(C)[C@H]([C@H](OC(=O)c3ccccc3)[C@]3(O)C[C@H](OC(=O)[C@H](O)[C@@H](NC(=O)c4ccccc4)c4ccccc4)C(C)=C1C3(C)C)[C@]1(OC(C)=O)CO[C@@H]1C[C@@H]2O [Taxol, paclitaxel, reference compound] |  | less than 1000 mm^3

Reference: patent US7700615B2, “Cell migration inhibiting compositions and methods and compositions for treating cancer” (Avolix Pharmaceuticals, Inc., priority 2002, dated 2010)
